In patent US20110162109A1 (BASF PLANT SCIENCE, published 2011):
Results are given in words; binding and its absence hold for the method and conditions named. For some assays here: Binding calls can cover weak binding; strength is not graded here. For some assays here: Tags and fused reporters may be left off the sequences shown. Blank lines part the entries; values can stand above or below the binder they belong to.

Tests used:
[1] = biological target: Spen like protein, At1g27750 (Arabidopsis thaliana); assay: TAP, bait SL
[2] = biological target: Spen like protein, At1g27750 (Arabidopsis thaliana); assay: GS-TAP purification, bait SL
[3] = biological target: Spen like protein, At1g27750 (Arabidopsis thaliana); assay: yeast two-hybrid
[4] = biological target: Spen like protein, At1g27750 (Arabidopsis thaliana); assay: yeast two-hybrid, pDEST22 HUB1 against pDEST32 SL
[5] = biological target: Spen like protein, At1g27750 (Arabidopsis thaliana); assay: yeast two-hybrid, pDEST22 HUB1 no RING against pDEST32 SL

- binding [1]: binds
- binding [2]: binds
- binding [3]: binds
- binding [4]: binds
B1: HUB1 (Histone Monoubiquitination 1), At2g44950, Arabidopsis thaliana (enzyme)
chain: MASTGEPDRKRRHFSSISPSEAAAAVKKQPFFWPSSEDKLDTAVLQFQNLKLSQKLEAQQVECSILEDKLSQIKEKQLPYNSSLKTVHKSWEKLTASVESCSVRVSDSSSGAHRFVNKEDGSSPAVKNDFINRLLETGATESSSSNICSNQMEENGVNTSSQMTQTLYNLVAATEDLRCLKDELYPTVLRTNLGKDLCGQLALSELESEIKSFRGDLDDVLVKFKSLSRELQSHRDADAKVRVDLKRIRGELEDEVVELQQCNGDLSALRAERDATAGAFFPVLSLGNKLATSDRERDKQRDLQDMETVLKELTVLASGRLQQLKNLHEERTKMLGKMSNLQNKSKSVRCISSSQACLSLKDQLEKSKEAVFQYMALLEKLQVEKDSIVWKEREINIKNELGDVSRKTSAVTDSRMASLDSEIQKQLDEKMRIKTRLGNISRERGRKEIFADMKALISSFPEEMSSMRSQLNNYKETAGGIHSLRADVQSLSGVLCRKTKEYEALQLRSADYASQLGDLNATVCDLKNSHEELKLFLDMYKRESTDARDIAEAKEQEYRAWAHVQSLKSSLDEQNLELRVKAANEAEAVSQQMLAAAEAEIADLRQKMDDCKRDVAKHSDILKSKHEEHGTYLSEIQTIGSAYEDIVPQNQRLLLQVTERDDYNIKLFLEGITSRQMQDTLLIDKYIMDKDIQQGSAYASFLSKKSSRIEDQLRFCTDQFQKLAEDKYQKSVSLENLQKKRADIGNGLEQARSRLEESHSKVEQSRLDYGALELELEIERFNRRRIEEEMEIAKKKVSRLRSLIEGSSAIQKLRQELSEFKEILKCKACNDRPKEVVITKCYHLFCNPCVQKLTGTRQKKCPTCSASFGPNDIKPIYI
notes: Full length HUB1; In the TAP experiments N-terminally fused to the TAP tag or the GS-TAP tag; in yeast two-hybrid fused to AD (pDEST22) or BD (pDEST32); all these constructs are written under this one entry; also called HUB1fl; full length HUB1

- binding [5]: no binding
B2: HUB1 no RING (enzyme)
chain: MASTGEPDRKRRHFSSISPSEAAAAVKKQPFFWPSSEDKLDTAVLQFQNLKLSQKLEAQQVECSILEDKLSQIKEKQLPYNSSLKTVHKSWEKLTASVESCSVRVSDSSSGAHRFVNKEDGSSPAVKNDFINRLLETGATESSSSNICSNQMEENGVNTSSQMTQTLYNLVAATEDLRCLKDELYPTVLRTNLGKDLCGQLALSELESEIKSFRGDLDDVLVKFKSLSRELQSHRDADAKVRVDLKRIRGELEDEVVELQQCNGDLSALRAERDATAGAFFPVLSLGNKLATSDRERDKQRDLQDMETVLKELTVLASGRLQQLKNLHEERTKMLGKMSNLQNKSKSVRCISSSQACLSLKDQLEKSKEAVFQYMALLEKLQVEKDSIVWKEREINIKNELGDVSRKTSAVTDSRMASLDSEIQKQLDEKMRIKTRLGNISRERGRKEIFADMKALISSFPEEMSSMRSQLNNYKETAGGIHSLRADVQSLSGVLCRKTKEYEALQLRSADYASQLGDLNATVCDLKNSHEELKLFLDMYKRESTDARDIAEAKEQEYRAWAHVQSLKSSLDEQNLELRVKAANEAEAVSQQMLAAAEAEIADLRQKMDDCKRDVAKHSDILKSKHEEHGTYLSEIQTIGSAYEDIVPQNQRLLLQVTERDDYNIKLFLEGITSRQMQDTLLIDKYIMDKDIQQGSAYASFLSKKSSRIEDQLRFCTDQFQKLAEDKYQKSVSLENLQKKRADIGNGLEQARSRLEESHSKVEQSRLDYGALELELEIERFNRRRIEEEMEIAKKKVSRLRSLIEGSSAIQKLRQELSEFKEILK
